A short description of this data set: general procedure: Fmoc solid-phase peptide synthesis; PEGA1900. To be noted: whole synthesis, UHPLC (crude); HPLC (vendor peptides).
As to KY(NO2)TESESRGK(Abz)IYYKKG, the “crude HPLC purity” value is reported as not below 76%.

As to Y(NO2)PESESRGAIYK(Abz)KKG, the “crude HPLC purity” value is reported as not below 72%.

Take Y(NO2)PESESRGAIYYKK(Abz)G: the “crude HPLC purity” value is given as not below 66%.

For Y(NO2)PESESRGK(Abz)IYYKKG, the “crude HPLC purity” value is not below 64%.

Take Y(NO2)TEGESRGAIYK(Abz)KKG: the “crude HPLC purity” value was not below 76%.

Take Y(NO2)TEGESRGAIYYKK(Abz)G: the “crude HPLC purity” value was not below 82%.

As for Y(NO2)TEGESRGK(Abz)IYYKKG, the “crude HPLC purity” value was not below 71%.

As to Y(NO2)TESESRGAIYJKK(Abz)G, the “crude HPLC purity” value is given as not below 88%.

As to Y(NO2)TESESRGAIYK(Abz)BKG, the “crude HPLC purity” value is listed as not below 80%.

As for Y(NO2)TESESRGAIYK(Abz)KKG, the “crude HPLC purity” value is given as not below 78%.

As to Y(NO2)TESESRGAIYLKK(Abz)G, the “crude HPLC purity” value is reported as not below 91%.

For the substance Y(NO2)TESESRGAIYYKK(Abz)G, the “crude HPLC purity” value is not below 78%.

For Y(NO2)TESESRGK(Abz)IYYKKG, the “crude HPLC purity” value is given as not below 81%.

For Y(NO2)TESESRGK(Abz)JYYKKG, the “crude HPLC purity” value is not below 77%.

On to Y(NO2)TESESRGZIYK(Abz)KKG, for which the “crude HPLC purity” value was not below 75%.

Take Y(NO2)TGTESESRGK(Abz)IYYKKG: the “crude HPLC purity” value was not below 72%.

Take Y(NO2)XESESRGK(Abz)IYYKKG: the “crude HPLC purity” value is not below 65%.
